Here are results for one compound from patent US8969413B2.

One experiment relates to GABAA receptor. The settings on record: 1 mM cold GABA.
Another experiment deals with cortical astrocytes. Particulars: read-out: astrocyte uptake IC50; data from Bolvig et al. 1999; cited from earlier work.

Regarding `NCCCC(=O)O` [GABA, γ-aminobutyric acid], the “inhibition of radioligand binding at GABAA receptors” value in the experiment on GABAA receptor was “inhibited radioligand binding as expected”. Also, the concentration for half-maximal inhibition (IC50) – broadly, the midpoint of a concentration-inhibition curve – with cortical astrocytes is 32 µM.
